These results are taken from paper PMC9581156.

Test [1] concerns the target T1, FLAG-tagged vacuolar protein sorting 25 (human) (UniProt Q9BRG1).
T1 sequence: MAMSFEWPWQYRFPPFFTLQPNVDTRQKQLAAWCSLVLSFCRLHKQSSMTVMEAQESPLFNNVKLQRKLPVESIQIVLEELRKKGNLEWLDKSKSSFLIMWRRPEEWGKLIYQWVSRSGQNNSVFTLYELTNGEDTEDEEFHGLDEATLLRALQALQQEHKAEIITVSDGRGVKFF
In words: co-IP; HEK293T co-transfected with FLAG-VPS25 and GFP-3A for 48 h; RIPA lysate; primary antibody (anti-FLAG or anti-GFP) overnight with Protein G Agarose; five washes; Western blot. (Immunoblotting shows a protein as a band on a membrane.)

Test [2] deals with GFP-tagged EV71 3A protein (expressed in HEK293T cells) (human enterovirus 71 (EV71)). Described as above.

No constants are given. Whether binding was seen depends on the method and setting. Binding seen in cells or lysates may run through a third protein. Binding can be weak; no strength is given. Sequences can lack the tags named with a protein.

“GFP-tagged EV71 3A protein (expressed in HEK293T cells) (human enterovirus 71 (EV71))”: the binding result in test [1] is reported as “binds”.

B1: FLAG-tagged vacuolar protein sorting 25 (protein, UniProt Q9BRG1 1-176)
chain: MAMSFEWPWQYRFPPFFTLQPNVDTRQKQLAAWCSLVLSFCRLHKQSSMTVMEAQESPLFNNVKLQRKLPVESIQIVLEELRKKGNLEWLDKSKSSFLIMWRRPEEWGKLIYQWVSRSGQNNSVFTLYELTNGEDTEDEEFHGLDEATLLRALQALQQEHKAEIITVSDGRGVKFF
In the case of B1, the binding entry in test [2] was “binds”.
